Measurements published in patent US20140296095.
Results from cells or extracts need not show a direct contact. For part of these data: Tags and fusion partners may be left off the protein sequences shown. For at least one entry, the source does not settle the construct or the ends of the probe. For part of these data: No signal at the amounts used counts as a negative.

Experiments:
[1] = system: Toledo cell surface (sgc8c non-target cells) (Homo sapiens); test: binding assay; settings: 5'-biotin; Toledo control cells removed by D-PBS wash; 8 non-target cells among a few hundred CCRF-CEM after 10 samples; protein on the cell surface; protein details: Toledo diffuse large-cell lymphoma cells (ATCC); label: biotin; single-stranded DNA
[2] = target: T1, PTK7 (on CCRF-CEM cells) (Homo sapiens) (UniProt Q13308); test: binding assay; settings: 5'-biotin, protein on the cell surface, protein details: native membrane protein on CCRF-CEM cells (ATCC), label: biotin, single-stranded DNA
T1 sequence (looked up, limits assumed): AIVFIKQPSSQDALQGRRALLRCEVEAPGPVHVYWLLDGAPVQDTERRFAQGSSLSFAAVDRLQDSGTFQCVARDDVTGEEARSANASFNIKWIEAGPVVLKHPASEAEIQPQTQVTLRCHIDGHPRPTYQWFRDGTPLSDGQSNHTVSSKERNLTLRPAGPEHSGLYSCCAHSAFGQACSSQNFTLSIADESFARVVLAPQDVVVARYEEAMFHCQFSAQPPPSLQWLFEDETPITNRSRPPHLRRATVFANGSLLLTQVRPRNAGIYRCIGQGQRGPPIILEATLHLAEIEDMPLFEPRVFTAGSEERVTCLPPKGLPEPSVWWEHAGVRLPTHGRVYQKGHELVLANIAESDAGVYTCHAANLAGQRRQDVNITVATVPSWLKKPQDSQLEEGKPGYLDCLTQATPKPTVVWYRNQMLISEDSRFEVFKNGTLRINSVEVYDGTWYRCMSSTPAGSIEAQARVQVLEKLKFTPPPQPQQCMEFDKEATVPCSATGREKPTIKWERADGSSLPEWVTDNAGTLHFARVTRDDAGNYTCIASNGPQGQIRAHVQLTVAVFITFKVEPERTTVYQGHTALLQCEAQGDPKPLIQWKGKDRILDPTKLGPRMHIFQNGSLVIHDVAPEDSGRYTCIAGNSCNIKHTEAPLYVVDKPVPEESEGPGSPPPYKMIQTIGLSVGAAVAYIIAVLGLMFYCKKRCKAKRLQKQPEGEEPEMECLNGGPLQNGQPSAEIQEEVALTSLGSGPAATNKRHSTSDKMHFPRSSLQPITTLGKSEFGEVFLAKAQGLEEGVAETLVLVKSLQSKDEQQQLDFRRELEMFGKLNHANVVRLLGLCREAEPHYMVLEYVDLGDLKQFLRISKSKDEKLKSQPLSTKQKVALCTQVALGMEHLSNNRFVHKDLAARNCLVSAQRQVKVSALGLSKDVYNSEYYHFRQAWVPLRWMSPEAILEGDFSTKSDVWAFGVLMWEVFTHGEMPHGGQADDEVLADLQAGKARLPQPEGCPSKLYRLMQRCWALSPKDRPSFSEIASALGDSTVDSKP

TTTTTTTTTATCTAACTGCTGCGCCGCCGGGAAAATACTGTACGGTTAGA [sgc8c biotinylated with polyT(9) spacer]
binding result [1]: no binding
binding result ([2]; CCRF-CEM cell capture on aptamer-functionalized microchamber, D-PBS, room temperature, about 80% of cells released at 48 C, 5 uL/min, 2 min): binds
Kd ([2]; CITED (no measurement described), stated for sgc8c aptamer, target CCRF-CEM cells): 0.78 nM
